Where two headings read alike, the source gives them in different places. At least one structure is not confirmed: it was looked up by name or label, or the drawing left a doubt. Peptide text beside a SMILES is read from it.
Target: T1, intestinal PYY-preferring receptors (Rattus norvegicus, UniProt Q9ERC0)
T1 sequence (Q9ERC0 1-381): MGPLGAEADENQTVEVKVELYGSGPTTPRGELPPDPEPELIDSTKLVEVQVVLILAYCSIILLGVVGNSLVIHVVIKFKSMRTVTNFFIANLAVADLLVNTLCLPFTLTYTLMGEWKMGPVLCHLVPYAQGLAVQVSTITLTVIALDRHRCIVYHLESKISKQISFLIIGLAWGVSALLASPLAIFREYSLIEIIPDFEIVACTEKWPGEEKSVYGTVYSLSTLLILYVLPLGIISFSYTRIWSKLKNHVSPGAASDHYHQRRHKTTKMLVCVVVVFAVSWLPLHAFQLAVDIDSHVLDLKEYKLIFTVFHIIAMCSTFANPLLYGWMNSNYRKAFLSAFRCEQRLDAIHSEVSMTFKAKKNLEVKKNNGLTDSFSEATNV

Compound | IC50 (Table 3, binding activity) | IC50 (Table 2, receptor binding data)
CC(=O)N[C@@H](C)C(=O)N[C@@H](CO)C(=O)N[C@@H](CC(C)C)C(=O)N[C@@H](CCCNC(=N)N)C(=O)N[C@@H](Cc1cscn1)C(=O)N[C@@H](Cc1ccccc1)C(=O)N[C@@H](CC(C)C)C(=O)N[C@@H](CC(N)=O)C(=O)N[C@@H](CC(C)C)C(=O)N[C@H](C(=O)N[C@H](C(=O)N[C@@H](CCCNC(=N)N)C(=O)N[C@@H](CCC(N)=O)C(=O)N[C@@H](CCCNC(=N)N)C(=O)N[C@@H](Cc1ccc(O)cc1)C(N)=O)[C@@H](C)O)C(C)C [Peptide 918, N-α-Ac-A S L R [Thz][Phe] L N L V T R q R Y--NH2] (HELM PEPTIDE1{[ac].A.S.L.R.[O=C([C@H](Cc1cscn1)N[*:1])[*:2]].F.L.N.L.V.T.R.Q.R.Y.[am]}$$$$V2.0) | 4.5 nM | 
Ac-RHFLNLVTRQRY-NH2 [Peptide 914, N-α-Ac-H [Phe] L N L V T R Q R Y--NH2] |  | 0.15 nM

— patent US5604203A, “Analogs of peptide YY and uses thereof” (University of Cincinnati, priority 1994, dated 1997)
